# Some of the results follow. Most entries show no effect beyond the scatter of the controls.
# By UniProt entry, the sequences of proteins in these tests, tags left out. Where a name states a change or a piece, a line headed by the entry shows the natural chain unless it says otherwise.
# UniProt P97742: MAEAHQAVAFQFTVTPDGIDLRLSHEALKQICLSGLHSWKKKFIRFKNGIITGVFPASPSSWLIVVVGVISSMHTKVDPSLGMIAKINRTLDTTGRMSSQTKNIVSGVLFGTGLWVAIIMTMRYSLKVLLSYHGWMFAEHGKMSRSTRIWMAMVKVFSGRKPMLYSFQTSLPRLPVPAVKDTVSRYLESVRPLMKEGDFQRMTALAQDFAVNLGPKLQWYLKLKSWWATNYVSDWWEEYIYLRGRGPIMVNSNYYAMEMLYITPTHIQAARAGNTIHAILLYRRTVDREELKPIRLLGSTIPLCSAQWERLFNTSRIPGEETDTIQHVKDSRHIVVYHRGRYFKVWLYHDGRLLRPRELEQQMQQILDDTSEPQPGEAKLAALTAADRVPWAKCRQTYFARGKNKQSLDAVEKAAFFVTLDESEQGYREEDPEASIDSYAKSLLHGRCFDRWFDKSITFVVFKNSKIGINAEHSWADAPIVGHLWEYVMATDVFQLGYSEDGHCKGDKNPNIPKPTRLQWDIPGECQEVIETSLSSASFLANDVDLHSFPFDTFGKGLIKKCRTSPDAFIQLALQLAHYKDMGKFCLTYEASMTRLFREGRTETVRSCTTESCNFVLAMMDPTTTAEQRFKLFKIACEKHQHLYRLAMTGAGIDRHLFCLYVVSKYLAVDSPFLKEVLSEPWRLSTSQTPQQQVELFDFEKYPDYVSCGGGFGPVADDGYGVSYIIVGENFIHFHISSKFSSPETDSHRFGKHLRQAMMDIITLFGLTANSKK
# UniProt P60824: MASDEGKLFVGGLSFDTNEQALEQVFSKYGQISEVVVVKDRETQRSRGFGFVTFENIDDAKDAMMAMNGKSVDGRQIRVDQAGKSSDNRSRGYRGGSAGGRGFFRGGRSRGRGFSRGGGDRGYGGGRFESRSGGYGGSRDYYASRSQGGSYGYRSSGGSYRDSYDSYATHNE
# UniProt P70296: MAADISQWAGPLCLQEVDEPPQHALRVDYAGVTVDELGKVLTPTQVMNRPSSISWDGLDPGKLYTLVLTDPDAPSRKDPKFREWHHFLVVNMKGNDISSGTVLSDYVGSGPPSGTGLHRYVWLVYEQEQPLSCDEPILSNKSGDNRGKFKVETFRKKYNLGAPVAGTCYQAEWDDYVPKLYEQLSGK
# UniProt P60334: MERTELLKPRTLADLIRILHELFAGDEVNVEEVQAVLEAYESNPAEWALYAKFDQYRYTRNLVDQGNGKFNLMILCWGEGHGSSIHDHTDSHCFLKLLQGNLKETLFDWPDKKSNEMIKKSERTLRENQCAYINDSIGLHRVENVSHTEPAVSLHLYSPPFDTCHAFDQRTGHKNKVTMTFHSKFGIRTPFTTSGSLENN
# UniProt P70194: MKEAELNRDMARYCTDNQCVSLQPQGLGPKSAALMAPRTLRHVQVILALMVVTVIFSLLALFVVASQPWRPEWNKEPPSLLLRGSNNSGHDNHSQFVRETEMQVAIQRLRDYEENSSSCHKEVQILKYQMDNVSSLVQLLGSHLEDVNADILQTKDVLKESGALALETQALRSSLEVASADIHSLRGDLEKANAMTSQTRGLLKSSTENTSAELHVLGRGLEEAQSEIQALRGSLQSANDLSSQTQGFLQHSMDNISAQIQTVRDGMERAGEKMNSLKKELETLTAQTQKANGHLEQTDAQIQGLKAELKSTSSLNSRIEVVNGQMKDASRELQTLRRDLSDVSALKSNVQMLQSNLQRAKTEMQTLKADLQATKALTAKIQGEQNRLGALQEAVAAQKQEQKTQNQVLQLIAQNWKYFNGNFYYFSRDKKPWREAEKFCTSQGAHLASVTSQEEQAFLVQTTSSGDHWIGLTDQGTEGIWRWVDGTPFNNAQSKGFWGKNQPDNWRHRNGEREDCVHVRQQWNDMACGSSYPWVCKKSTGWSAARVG
# UniProt P59913: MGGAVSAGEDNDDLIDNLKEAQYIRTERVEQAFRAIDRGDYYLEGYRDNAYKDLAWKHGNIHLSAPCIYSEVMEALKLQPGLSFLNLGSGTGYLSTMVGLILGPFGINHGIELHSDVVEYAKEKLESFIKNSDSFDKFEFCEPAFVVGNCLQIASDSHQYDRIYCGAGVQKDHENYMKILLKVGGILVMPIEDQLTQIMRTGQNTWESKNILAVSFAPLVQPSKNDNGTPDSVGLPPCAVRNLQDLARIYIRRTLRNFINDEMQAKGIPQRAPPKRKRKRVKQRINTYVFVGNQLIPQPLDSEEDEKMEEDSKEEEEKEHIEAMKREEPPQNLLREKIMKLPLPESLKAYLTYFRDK
# UniProt P70671: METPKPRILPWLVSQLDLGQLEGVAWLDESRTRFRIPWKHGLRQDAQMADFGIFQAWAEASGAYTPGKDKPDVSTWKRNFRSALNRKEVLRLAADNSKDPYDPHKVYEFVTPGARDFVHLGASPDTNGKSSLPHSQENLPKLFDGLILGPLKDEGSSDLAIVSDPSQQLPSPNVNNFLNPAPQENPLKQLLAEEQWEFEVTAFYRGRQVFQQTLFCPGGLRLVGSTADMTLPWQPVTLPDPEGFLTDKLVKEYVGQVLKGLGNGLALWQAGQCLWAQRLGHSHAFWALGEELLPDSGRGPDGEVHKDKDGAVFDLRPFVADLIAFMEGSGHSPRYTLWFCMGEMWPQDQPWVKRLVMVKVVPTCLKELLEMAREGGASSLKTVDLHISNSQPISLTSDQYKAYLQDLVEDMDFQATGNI
# UniProt P60487: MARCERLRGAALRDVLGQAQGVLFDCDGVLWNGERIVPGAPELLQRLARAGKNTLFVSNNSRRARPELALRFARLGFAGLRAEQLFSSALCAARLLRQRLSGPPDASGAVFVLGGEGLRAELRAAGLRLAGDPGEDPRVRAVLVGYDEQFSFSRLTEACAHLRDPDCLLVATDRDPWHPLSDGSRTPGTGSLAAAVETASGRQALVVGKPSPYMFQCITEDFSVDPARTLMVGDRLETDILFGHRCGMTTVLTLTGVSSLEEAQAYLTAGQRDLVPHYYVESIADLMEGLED
# UniProt P59383: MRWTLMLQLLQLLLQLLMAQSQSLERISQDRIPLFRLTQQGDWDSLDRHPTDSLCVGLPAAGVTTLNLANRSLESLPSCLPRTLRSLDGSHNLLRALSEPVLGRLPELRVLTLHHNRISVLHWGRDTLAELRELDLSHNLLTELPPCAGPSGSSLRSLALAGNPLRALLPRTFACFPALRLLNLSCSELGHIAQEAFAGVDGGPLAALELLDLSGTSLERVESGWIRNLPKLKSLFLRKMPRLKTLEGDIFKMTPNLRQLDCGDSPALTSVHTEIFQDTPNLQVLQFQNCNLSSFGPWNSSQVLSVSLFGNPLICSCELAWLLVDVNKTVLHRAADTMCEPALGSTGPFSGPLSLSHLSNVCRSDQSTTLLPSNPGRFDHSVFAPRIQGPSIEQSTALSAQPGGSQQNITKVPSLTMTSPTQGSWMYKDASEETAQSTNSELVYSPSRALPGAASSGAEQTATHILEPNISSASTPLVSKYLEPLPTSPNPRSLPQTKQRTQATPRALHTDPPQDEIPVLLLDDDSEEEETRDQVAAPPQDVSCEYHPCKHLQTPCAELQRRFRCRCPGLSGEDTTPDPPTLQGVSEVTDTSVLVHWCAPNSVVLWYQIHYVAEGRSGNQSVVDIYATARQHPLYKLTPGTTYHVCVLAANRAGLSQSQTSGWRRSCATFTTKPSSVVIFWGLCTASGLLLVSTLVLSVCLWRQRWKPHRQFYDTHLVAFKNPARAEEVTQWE
# UniProt P60762, whole entry: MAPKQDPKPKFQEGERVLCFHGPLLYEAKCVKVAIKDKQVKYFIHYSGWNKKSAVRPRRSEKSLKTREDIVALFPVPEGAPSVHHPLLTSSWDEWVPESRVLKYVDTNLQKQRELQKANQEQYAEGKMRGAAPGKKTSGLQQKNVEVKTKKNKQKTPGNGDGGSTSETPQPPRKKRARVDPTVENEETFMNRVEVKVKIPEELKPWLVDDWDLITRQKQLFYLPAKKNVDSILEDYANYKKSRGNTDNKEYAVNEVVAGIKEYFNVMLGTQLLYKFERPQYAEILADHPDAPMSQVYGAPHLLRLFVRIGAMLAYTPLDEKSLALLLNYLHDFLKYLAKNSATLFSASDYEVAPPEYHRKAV
# UniProt P97430: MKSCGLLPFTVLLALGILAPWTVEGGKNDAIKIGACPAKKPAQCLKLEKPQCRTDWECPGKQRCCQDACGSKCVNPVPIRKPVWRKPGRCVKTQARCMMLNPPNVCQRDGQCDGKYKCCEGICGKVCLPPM
# UniProt P61922: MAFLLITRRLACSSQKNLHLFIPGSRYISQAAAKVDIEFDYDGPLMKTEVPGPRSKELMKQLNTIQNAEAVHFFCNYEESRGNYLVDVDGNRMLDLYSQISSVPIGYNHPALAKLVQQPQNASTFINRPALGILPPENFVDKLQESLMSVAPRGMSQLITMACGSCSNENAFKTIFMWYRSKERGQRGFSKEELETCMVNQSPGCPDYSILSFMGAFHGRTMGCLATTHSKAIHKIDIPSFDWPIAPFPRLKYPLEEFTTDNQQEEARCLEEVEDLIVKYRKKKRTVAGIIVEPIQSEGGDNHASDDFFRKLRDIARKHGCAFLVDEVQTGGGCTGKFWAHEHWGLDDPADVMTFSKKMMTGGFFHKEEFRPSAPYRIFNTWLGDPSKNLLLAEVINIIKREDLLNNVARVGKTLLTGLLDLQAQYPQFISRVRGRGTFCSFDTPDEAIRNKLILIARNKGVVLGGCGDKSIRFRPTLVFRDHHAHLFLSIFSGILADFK
# UniProt P70349: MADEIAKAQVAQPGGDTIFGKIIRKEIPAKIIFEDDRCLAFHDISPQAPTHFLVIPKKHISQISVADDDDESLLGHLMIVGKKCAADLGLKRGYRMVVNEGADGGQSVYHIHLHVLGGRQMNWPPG
# UniProt P58281: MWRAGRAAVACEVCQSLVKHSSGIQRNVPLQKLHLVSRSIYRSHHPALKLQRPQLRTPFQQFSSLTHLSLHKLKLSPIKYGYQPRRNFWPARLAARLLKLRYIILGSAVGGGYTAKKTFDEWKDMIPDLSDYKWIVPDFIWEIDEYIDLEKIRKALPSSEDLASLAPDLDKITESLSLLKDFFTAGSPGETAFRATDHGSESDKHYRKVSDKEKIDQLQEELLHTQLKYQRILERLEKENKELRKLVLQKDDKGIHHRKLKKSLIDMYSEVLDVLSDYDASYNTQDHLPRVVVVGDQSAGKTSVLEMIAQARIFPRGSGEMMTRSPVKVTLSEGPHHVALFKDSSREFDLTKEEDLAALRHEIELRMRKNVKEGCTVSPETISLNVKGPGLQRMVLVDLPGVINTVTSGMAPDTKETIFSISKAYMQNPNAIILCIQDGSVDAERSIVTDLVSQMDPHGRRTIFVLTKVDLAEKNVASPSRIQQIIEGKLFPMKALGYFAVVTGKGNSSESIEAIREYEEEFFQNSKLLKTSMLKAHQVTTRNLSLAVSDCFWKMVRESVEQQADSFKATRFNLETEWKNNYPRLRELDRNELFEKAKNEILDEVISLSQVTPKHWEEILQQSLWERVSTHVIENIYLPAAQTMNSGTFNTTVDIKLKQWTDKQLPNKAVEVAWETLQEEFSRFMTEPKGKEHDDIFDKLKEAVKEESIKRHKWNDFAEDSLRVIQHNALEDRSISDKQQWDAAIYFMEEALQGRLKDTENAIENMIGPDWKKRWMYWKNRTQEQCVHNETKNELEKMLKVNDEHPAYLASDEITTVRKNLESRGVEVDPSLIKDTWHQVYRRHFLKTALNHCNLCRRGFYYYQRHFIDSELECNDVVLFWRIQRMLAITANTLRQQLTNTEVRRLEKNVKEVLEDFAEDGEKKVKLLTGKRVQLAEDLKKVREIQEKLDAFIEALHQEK
# UniProt P62814, whole entry: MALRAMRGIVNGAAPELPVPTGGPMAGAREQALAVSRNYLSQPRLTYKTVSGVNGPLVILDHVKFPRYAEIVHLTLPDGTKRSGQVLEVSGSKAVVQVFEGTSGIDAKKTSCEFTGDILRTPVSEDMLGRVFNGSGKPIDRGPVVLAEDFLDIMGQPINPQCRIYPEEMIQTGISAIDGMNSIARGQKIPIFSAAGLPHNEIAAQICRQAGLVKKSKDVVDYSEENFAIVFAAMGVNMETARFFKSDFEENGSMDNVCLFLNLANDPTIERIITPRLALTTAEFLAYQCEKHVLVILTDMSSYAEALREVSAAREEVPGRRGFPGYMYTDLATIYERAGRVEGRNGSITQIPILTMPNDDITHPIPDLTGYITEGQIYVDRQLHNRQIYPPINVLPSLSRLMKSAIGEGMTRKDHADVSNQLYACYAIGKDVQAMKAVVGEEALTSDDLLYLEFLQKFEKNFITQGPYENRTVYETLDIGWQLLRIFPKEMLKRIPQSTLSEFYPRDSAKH
# Compound: CN[C@@H]1C[C@H]2O[C@@](C)([C@@H]1OC)n1c3ccccc3c3c4c(c5c6ccccc6n2c5c31)C(=O)NC4 [staurosporine]
# Assay: log2 fold change of pooled soluble protein (PISA), ligand vs vehicle (log2 ratio); higher = more thermally stabilized
# Details: ligand concentration: 20 uM; assay format: PISA pool 52.9/55.5/58.6 C
row,Target,log2 fold change of pooled soluble protein
1,UniProt P97742,-0.0129
2,UniProt P60824,-0.0301
3,UniProt P58774,-0.257
4,UniProt P97429,0.0848
5,UniProt P70296,-0.108
6,UniProt P58871,0.0303
7,UniProt P63073,-0.0521
8,UniProt P97478,-0.114
9,UniProt P70195,-0.0423
10,UniProt P70315,-0.149
11,UniProt P58044,-0.0455
12,UniProt P57016,-0.0262
13,UniProt P97384,-0.0715
14,UniProt P60334,-0.183
15,UniProt P70441,-0.0564
16,UniProt P97431,0.0991
17,UniProt P83741,-0.0638
18,UniProt P97348,-0.119
19,UniProt P70194,-0.208

row,Target,log2 fold change of pooled soluble protein
1,UniProt P59913,-0.138
2,UniProt P80318,0.0496
3,UniProt P59017,-0.0603
4,UniProt P70671,0.161
5,UniProt P60487,0.00361
6,UniProt P59383,0.117
7,UniProt P57759,0.0349
8,UniProt P60762,-0.28
9,UniProt P97430,0.105
10,UniProt P61922,-0.0345
11,UniProt P59672,-0.00169
12,UniProt P70335,0.398
13,UniProt P70349,0.18
14,UniProt P70122,0.00792
15,UniProt P97494,-0.0839
16,UniProt P62748,0.285
17,UniProt P62869,0.125
18,UniProt P58281,-0.0876
19,UniProt P62814,-0.0315

# Taken from the results shown (3 entries):
row,Target,log2 fold change of pooled soluble protein
16,UniProt P62748,0.285
17,UniProt P62869,0.125
18,UniProt P58281,-0.0876
